PubChem BioAssay AID1259308 | NCATS | 2017
Here is a random part of about 59,000 reagents. About 1,510 of all reagents (2.6%) were called active. 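Calls use total luciferase alone and ignore viability, so some active siRNAs may act by altering cell number.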 Unmarked entries are inactive. Reagents against one gene are numbered here.

Assay: 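Genes whose loss raises luciferase production in HEK293 cells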 (primary screen)
Cells: human HEK293 embryonic kidney cells stably expressing firefly luciferase (HEK-CMV-Luc2-Hygro)
Reagents: single siRNA against human genes, 0.8 pmol siRNA per well
Timing: 72 h
Measurement: 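Luciferase light (ONE-Glo) measured on one replicate plate set and viability (CellTiter-Glo) on the other, scaled to a negative control siRNA, with robust z-scores and luciferase per cell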
Scale: total luciferase, z-score and total luciferase, % of control: higher = more reporter protein produced; luciferase per cell, z-score: higher = more reporter output per viable cell; viable cells, % of control: higher = more viable cells
Call rule: 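An siRNA counts as active if its total luciferase robust z-score exceeds 3; genes with two or more such siRNAs out of three were retested with fresh siRNAs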
Meaning of the calls: active = raised luciferase; inactive = no rise

gene symbol	siRNA no.	total luciferase, z-score	total luciferase, % of control	luciferase per cell, z-score	viable cells, % of control
ZNF226 (zinc finger protein 226)	1	-0.802	65.9	-0.352	80.8
ZNF226 (zinc finger protein 226)	2	-0.719	67.6	-0.697	90.8
ZNF226 (zinc finger protein 226)	3	-0.684	68.3	-0.589	89.1
SYNJ2 (synaptojanin 2)	1	-2.35	35.1	-2.18	69.5
SYNJ2 (synaptojanin 2)	2	-0.811	65.8	-0.336	80.3
SYNJ2 (synaptojanin 2)	3	-0.129	79.3	-0.728	107
CA12 (carbonic anhydrase 12)	1	-0.134	79.2	-0.524	102
CA12 (carbonic anhydrase 12)	2	0.968	101	0.949	88
CA12 (carbonic anhydrase 12)	3	-0.683	68.3	-0.0814	78
KIF3C (kinesin family member 3C)	1	-1	61.9	-1.12	92.9
KIF3C (kinesin family member 3C)	2	0.829	98.4	0.901	86.7
KIF3C (kinesin family member 3C)	3	-0.889	64.2	-0.205	75.7

The list goes on; the last 2 above are carried over.
gene symbol	siRNA no.	total luciferase, z-score	total luciferase, % of control	luciferase per cell, z-score	viable cells, % of control
KIF3C (kinesin family member 3C)	2	0.829	98.4	0.901	86.7
KIF3C (kinesin family member 3C)	3	-0.889	64.2	-0.205	75.7
CNTNAP2 (contactin associated protein 2)	1	-0.0474	80.9	-0.236	96.2
CNTNAP2 (contactin associated protein 2)	2	0.586	93.5	0.233	98.3
CNTNAP2 (contactin associated protein 2)	3	-0.618	69.6	0.734	64.1
RAB27B (RAB27B, member RAS oncogene family)	1	-0.743	67.1	-1.07	99.3
RAB27B (RAB27B, member RAS oncogene family)	2	1.72	116	1.73	82.2
RAB27B (RAB27B, member RAS oncogene family)	3	0.581	93.5	0.443	92.9
HHAT (hedgehog acyltransferase)	1	-1.35	55.1	-1.19	84.2
HHAT (hedgehog acyltransferase)	2	0.863	99.1	0.154	106
HHAT (hedgehog acyltransferase)	3	0.206	86	-0.0587	97.6
ADCY3 (adenylate cyclase 3)	1	-0.608	69.8	-0.91	99.1
ADCY3 (adenylate cyclase 3)	2	-0.615	69.7	-1.06	103
ADCY3 (adenylate cyclase 3)	3	0.379	89.4	-0.00337	100
